Patent US20100280060A1, “Methods of screening and compositions for life span modulators” (The University of Washington, priority 2005, published 2010)
At least one compound was matched to its structure with a doubt left.

Tested on: wild-type yeast cells
Assay: High throughput chronological life span (CLS) assay, viability by OD after outgrowth (DVOD)
Type: cell-based, Saccharomyces cerevisiae

Compound: CO[C@H]1C[C@@H]2CC[C@@H](C)[C@@](O)(O2)C(=O)C(=O)N2CCCC[C@H]2C(=O)O[C@H]([C@H](C)C[C@@H]2CC[C@@H](O)[C@H](OC)C2)CC(=O)[C@H](C)/C=C(\C)[C@@H](O)[C@@H](OC)C(=O)[C@H](C)C[C@H](C)/C=C/C=C/C=C/1C [Rapamycin]
- chronological life span (sub-toxic doses (FIG. 4 legend)): extend chronological life span
- chronological life span (wild-type cells treated with 10 ng/ml, relative to vehicle-treated control cells (FIG. 4)): significant life span increase
